Laboratory results taken from article PMC2758704.
These are yes or no findings as the source states them, for the method shown. In cells and extracts the contact can be indirect. A yes stands for co-enrichment or nearness to the bait. Other partners may have been found.

Protein sequences, listed by entry. Tags and fused reporters are not part of them.
UniProt P09211: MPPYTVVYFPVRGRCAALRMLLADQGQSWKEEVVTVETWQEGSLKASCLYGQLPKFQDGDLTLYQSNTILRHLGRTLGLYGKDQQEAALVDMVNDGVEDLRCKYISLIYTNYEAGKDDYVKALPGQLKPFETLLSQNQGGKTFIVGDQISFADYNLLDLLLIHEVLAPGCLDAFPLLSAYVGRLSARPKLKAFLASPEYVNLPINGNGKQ

Biological target: S. japonicum GST-HPV-16 E7 chimeric protein (Human Papillomavirus 16 (HPV-16)) (UniProt P03129)
Experiment: affinity purification with mass spectrometry; 1.5 µg GST-HPV-16 E7 (or S.j GST alone) added to HaCaT cell lysate (50 mM Tris-Cl pH 7.4, 5 mM EDTA, 250 mM NaCl, 0.1% Triton X-100), 100 min at 4°C; collected on glutathione-Sepharose 4B; SDS-PAGE, silver staining; band identified by MALDI-ToF peptide mass fingerprinting; only the target purified

For “glutathione S-transferase P1-1 (GSTP1), endogenous (from UniProt P09211 1-210)”, the binding was “binds”.
